The experiment addresses activated form of FOXO3 (p-FOXO3 Ser413) (human (endogenous in HUDEP-2)) (UniProt O43524). The experiment is described as follows: affinity purification with mass spectrometry; immunoprecipitation with anti-FOXO3 ser413 antibody or IgG from wild type and insA clone HUDEP-2 cells (3 x 10^7), RIPA lysis buffer, 4 °C, protein A/G plus agarose, washed 4 times with PBS; Q Exactive HF, MaxQuant.

Protein sequences, listed by entry. Tags and fused reporters are not part of them.
UniProt O43524: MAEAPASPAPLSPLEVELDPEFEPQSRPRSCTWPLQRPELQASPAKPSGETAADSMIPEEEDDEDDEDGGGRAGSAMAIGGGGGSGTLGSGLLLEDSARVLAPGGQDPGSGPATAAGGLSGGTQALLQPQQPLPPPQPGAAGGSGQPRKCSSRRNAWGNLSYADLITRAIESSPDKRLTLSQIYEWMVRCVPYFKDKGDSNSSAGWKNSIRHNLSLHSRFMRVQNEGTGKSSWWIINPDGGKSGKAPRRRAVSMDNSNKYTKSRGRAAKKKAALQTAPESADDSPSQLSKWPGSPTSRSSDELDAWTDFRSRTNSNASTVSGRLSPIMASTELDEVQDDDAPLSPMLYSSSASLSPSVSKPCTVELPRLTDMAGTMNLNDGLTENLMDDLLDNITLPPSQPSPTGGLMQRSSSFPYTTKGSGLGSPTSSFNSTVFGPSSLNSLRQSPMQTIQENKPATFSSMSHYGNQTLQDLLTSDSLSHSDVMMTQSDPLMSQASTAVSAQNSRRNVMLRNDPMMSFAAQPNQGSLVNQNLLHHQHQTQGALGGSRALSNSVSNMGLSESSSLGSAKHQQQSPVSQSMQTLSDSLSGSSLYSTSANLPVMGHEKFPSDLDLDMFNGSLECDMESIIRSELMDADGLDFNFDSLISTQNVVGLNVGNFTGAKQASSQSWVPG
UniProt Q13547: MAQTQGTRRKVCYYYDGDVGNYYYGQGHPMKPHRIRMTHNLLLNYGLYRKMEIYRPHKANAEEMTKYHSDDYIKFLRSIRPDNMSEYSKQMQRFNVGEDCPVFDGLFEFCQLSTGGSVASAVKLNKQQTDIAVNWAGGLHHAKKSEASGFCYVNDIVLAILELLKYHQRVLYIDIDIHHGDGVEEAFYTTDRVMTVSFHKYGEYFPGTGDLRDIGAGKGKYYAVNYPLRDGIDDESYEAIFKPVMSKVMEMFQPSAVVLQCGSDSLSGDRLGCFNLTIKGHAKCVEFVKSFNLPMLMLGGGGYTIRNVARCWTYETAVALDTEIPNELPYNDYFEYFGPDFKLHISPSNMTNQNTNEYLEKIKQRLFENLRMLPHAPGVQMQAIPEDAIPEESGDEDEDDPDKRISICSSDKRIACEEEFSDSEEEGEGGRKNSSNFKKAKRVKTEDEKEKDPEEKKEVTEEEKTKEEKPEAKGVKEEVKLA

These are yes or no findings as the source states them, for the method shown. Binding seen in cells or lysates may run through a third protein. Here binding means that the protein was enriched with, or labelled near, the bait; the list need not be complete.

Drawing on PMC11951516, this text covers binding for 1 substance.

As for HDAC1 (from UniProt Q13547 1-482), the binding entry is “binds”.
